The series can be described thus: Solubility and thin film characteristics. Format: physicochemical. The settings on record: spin-coated from chloroform, 800 rpm 60 s and 400 rpm 5 s; surface profiler.
`CCCCCCOc1cc(-c2c3nsnc3c(-c3cc(OCCCCCC)c(-c4cc5c(s4)c4sc(CCCCCC)cc4n5CCCCCC)s3)c3nc4c5ccccc5c5ccccc5c4nc23)sc1-c1cc2c(s1)c1sc(CCCCCC)cc1n2CCCCCC` [Synthesis Example 4] came in with a Thin film thickness of 80 nm.
`CCCCCCOc1cc(-c2c3nsnc3c(-c3cc(OCCCCCC)c(-c4cc5c(s4)c4sc(CCCCCC)cc4n5CCCCCC)s3)c3nc4c5ncccc5c5cccnc5c4nc23)sc1-c1cc2c(s1)c1sc(CCCCCC)cc1n2CCCCCC` [Synthesis Example 3] had a Thin film thickness of 110 nm.
In the case of `CCCCCCOc1cc(-c2c3c(c(-c4cc(OCCCCCC)c(-c5cc6c(s5)c5sc(CCCCCC)cc5n6CCCCCC)s4)c4n[se]nc24)N=[Se]=N3)sc1-c1cc2c(s1)c1sc(CCCCCC)cc1n2CCCCCC` [Synthesis Example 5], the Thin film thickness was found to be 50 nm.
On to `CCCCCCOc1cc(-c2c3c(c(-c4cc(OCCCCCC)c(-c5cc6c(s5)c5sc(CCCCCC)cc5n6CCCCCC)s4)c4nsnc24)N=S=N3)sc1-c1cc2c(s1)c1sc(CCCCCC)cc1n2CCCCCC` [Synthesis Example 2], for which the Thin film thickness worked out at 120 nm.
Consider `CCCCCCOc1cc(-c2c3c(c(-c4cc(OCCCCCC)c(-c5cc6c(s5)c5sc(CCCCCC)cc5n6CCCCCC)s4)c4nsnc24)N=[Se]=N3)sc1-c1cc2c(s1)c1sc(CCCCCC)cc1n2CCCCCC` [Synthesis Example 1], for which the Thin film thickness is on record as 70 nm.

Source of the values: patent publication US20210343946A1, “INFRARED ABSORBERS, INFRARED ABSORBING/BLOCKING FILMS AND PHOTOELECTRIC DEVICES AND ORGANIC SENSORS AND ELECTRONIC DEVICES” (Samsung Electronics Co., Ltd., priority 2020, published 2021).
